In PMC3765826:
No constants are given. Whether binding was seen depends on the method and setting.

Target: T1, OsMPK3 (rice (Oryza sativa)) (UniProt Q10N20)
T1 sequence: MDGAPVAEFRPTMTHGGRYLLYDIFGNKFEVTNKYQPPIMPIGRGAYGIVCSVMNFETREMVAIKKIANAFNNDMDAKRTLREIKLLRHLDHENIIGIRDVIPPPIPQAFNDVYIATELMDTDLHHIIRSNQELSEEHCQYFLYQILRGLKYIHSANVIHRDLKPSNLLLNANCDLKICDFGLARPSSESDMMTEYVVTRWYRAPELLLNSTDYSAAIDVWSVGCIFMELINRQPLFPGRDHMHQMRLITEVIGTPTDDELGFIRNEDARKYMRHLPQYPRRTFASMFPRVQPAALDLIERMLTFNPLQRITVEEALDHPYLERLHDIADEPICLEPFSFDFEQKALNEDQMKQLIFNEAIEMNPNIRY
Experiment: two-hybrid; one to one, pGADT7 and pGBKT7 constructs co-transformed in yeast AH109; selected on DDO, interaction checked by growth on QDO (SD-trp-leu-ade-his) at 30°C

binding: no binding
B1: OsMPK17-1 (protein, UniProt Q5Z9J0 1-580)
chain: MGGGGTLVDGFRRLFHRRTASGSNQSSNAGEEAASSDLEVADDPDLVALRSIRIRVPKRKMPLPVESHKKNTVEMEFFTEYGEASQYQIQEVIGKGSYGVVAAAVDTRTGERVAIKKINDVFEHVSDATRILREIKLLRLLRHPDIVEIKHIMLPPSRREFQDIYVVFELMESDLHQVIRANDDLTPEHYQFFLYQLLRALKYIHAANVFHRDLKPKNILANSDCKLKICDFGLARASFNDAPSAIFWTDYVATRWYRAPELCGSFFSKYTPAIDIWSIGCIFAELLTGRPLFPGKNVVHQLDIITDLLGTPSSETLSRIRNEKARRYLSTMRKKHAVPFSQKFRNTDPLALRLLERLLAFDPKDRSSAEEALADPYFASLANVEREPSRHPISKLEFEFERRKLTKDDVRELIYREILEYHPQMLQEYMKGGEQISFLYPSGVDRFKRQFAHLEENYSKGERGSPLQRKHASLPRERVGVSKDGYNQQNTNDQERSADSVARTTVSPPMSQDAQQHGSAGQNGVTSTDLSSRSYLKSASISASKCVAVKDNKEPEDDYISEEMEGSVDGLSEQVSRMHS
